# Results from PMC8015059.
# Sequences of proteins named here, by UniProt entry; tags and fusion partners are left off.
# UniProt P03165: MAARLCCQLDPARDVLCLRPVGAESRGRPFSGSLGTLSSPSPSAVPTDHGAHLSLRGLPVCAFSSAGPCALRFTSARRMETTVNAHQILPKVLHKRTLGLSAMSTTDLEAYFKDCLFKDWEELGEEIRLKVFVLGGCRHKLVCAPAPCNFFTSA
# Results are given in words; binding and its absence hold for the method and conditions named. In cells and extracts the contact can be indirect. Some binding calls cover weakened binding; strength is not graded here. Tags and fused reporters may be left off the sequences shown.
# Target: T1, HA-HBP1 (UniProt O60381)
# T1 sequence: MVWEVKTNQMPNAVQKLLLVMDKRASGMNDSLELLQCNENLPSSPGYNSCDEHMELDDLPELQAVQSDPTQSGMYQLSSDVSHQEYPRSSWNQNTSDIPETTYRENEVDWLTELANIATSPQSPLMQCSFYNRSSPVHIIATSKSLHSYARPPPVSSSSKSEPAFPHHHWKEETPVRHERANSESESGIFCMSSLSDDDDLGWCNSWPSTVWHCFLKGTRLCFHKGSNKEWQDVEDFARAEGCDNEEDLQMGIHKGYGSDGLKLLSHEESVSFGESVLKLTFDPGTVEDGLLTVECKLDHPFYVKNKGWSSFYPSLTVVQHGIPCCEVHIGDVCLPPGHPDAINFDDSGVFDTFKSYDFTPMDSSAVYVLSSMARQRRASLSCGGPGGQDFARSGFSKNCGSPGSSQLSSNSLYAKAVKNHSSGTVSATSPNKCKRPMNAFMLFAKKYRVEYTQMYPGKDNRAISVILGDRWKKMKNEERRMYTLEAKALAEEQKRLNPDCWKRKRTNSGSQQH
# Experiment: co-IP; 293T cells co-transfected with HA-HBP1 and FLAG-HBx; lysates in IP lysis buffer (25 mM Tris-HCl pH 7.4, 150 mM NaCl, 1% Nonidet P-40, 1 mM EDTA, 5% glycerol) incubated with anti-FLAG or anti-HA antibody and protein A-Sepharose overnight at 4 °C; Western blotting with anti-HA or anti-FLAG
substance,measurement,value
FLAG-HBx (from UniProt P03165 1-154),binding,binds
